Test results from patent US20260345641A1, “COMPOSITIONS AND USES THEREOF” (Algorae Pharmaceuticals Ltd, priority 2023, published 2026).

Key:
SH-SY5Y cells = assay: Gene expression analysis by RNA sequencing in the presence of Aβ; type: cell-based, human; conditions: 5 μM, with Aβ
Text: The SH-S5Y5 neuroblastoma cell line was used for pre-clinical analysis. The SH-S5Y5 cell line is commonly used as a model for neurodegenerative disorders as the cells can be converted to various types of functional neurons by the addition of specific compounds (see, e.g., Xicoy et al., 2017, Molecular Neurodegeneration, 12: 10). In addition, the SH-S5Y5 cell line has been used widely in experimental neurological studies, including analysis of neuronal differentiation, metabolism, and function related to neurodegenerative processes, neurotoxicity and neuroprotection (see, e.g., Datki et al., 2003, Brain Research Bulletin, 62(3): 22-229; and Xie et al., 2010, Chinese Medical Journal, 123(8): 1086-1092).
Total RNA was isolated from cells using TRIzol in accordance with the manufacturer's instructions (Invitrogen, Carlsbad, CA, USA). RNA concentration and quality was assessed using a NanoDrop spectrophotometer. Only samples with a 260/280 ratio of ≥1.8 were used for further analysis.
Messenger RNA (mRNA) was purified from total RNA using poly-T oligo attached magnetic beads. After fragmentation, cDNA synthesis was performed in accordance with the manufacturer's instructions (Illumina, San Diego, CA, USA) to generate a directional and non-directional library. Libraries were checked with Qubit, real-time PCR was performed for quantification, and size distribution detection was performed using the Bioanalyzer. Quantified libraries were pooled and sequenced on an Illumina platform, according to the manufacturer's instructions.
Raw reads were filtered and mapped to human reference genome (GRCh38/hg38) using HISAT2. Differential gene expression analysis was performed using R Package DEG seq2. […] Manual annotation of genes previously associated with specific neurodegenerative disorders and dementias was performed following a text mining analysis.

[1] = oral administration; cited from earlier work

COc1cc2c(cc1OC)C(=O)C(CC1CCN(Cc3ccccc3)CC1)C2 (centres unmarked) [Donepezil]
CARD14 gene expression (SH-SY5Y cells; control 0.139, P 0.051): 0.106
CYP51A1 gene expression (SH-SY5Y cells; control 1.068, P 0.020): 1.389
CYP27A1 gene expression (SH-SY5Y cells; control 2.685, P 0.037): 0.693
EIF2B4 gene expression (SH-SY5Y cells; control 17.110, P 0.014): 13.862
bioavailability [1]: high bioavailability
